PubChem BioAssay AID743121 – NCATS | 2013

Assay: 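Partners whose loss is lethal together with topoisomerase I blockade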 (primary screen)
System: MDA-MB-231 cells, a human breast cancer line
Reagent: single siRNA against human genes, 20 nM siRNA (0.8 pmol per well)
Timing: 120 h (drug added 48 h after transfection, read 72 h later)
Treatment: camptothecin 20 nM (about EC30) for 72 h; vehicle 0.1% DMSO in parallel plates
Detection: 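CellTiter-Glo ATP signal, scaled to control siRNA as percent viability; sensitisation given as log2 of untreated divided by camptothecin-treated viability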
Reading the numbers: log2 vehicle/camptothecin viability: higher = stronger sensitisation to camptothecin; viability with camptothecin: higher = more viable cells
Units: viability with camptothecin in % of control
Rule for the call: 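Each gene scored by redundant siRNA activity (RSA) over its individual siRNA ratios; a gene is called active at p < 0.001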
Shown is an unselected part of about 26,000 reagents tested. Of all reagents, 167 (0.63%) got an active call. 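Calls are per gene from RSA p-values that are not deposited; an individual active-marked siRNA can sensitise only weakly.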 The numbers tell different reagents against one gene apart. Not all columns of the deposit are shown.

For HNRNPUL2 #1 the deposit lists log2 vehicle/camptothecin viability -0.24; viability with camptothecin 101; inactive.
HNRNPUL2 #2 scored log2 vehicle/camptothecin viability -0.216; viability with camptothecin 105; inactive.
HNRNPUL2 #3 scored log2 vehicle/camptothecin viability -0.405; viability with camptothecin 110; inactive.
DUS1L #1 gave log2 vehicle/camptothecin viability 0.0109; viability with camptothecin 79.3; inactive.
Depletion of DUS1L #2 resulted in: log2 vehicle/camptothecin viability -0.204; viability with camptothecin 73.3; inactive.
Knock-down of DUS1L #3 gave: log2 vehicle/camptothecin viability -0.0453; viability with camptothecin 77.5; inactive.
After knock-down of DUS1L #4 the results were log2 vehicle/camptothecin viability -0.117; viability with camptothecin 73.2; inactive.
Against SI #1 the deposit lists log2 vehicle/camptothecin viability 0.153; viability with camptothecin 93.6; inactive.
With knock-down of SI #2, the screen gave log2 vehicle/camptothecin viability -0.374; viability with camptothecin 47.9; inactive.
SI #3 gave log2 vehicle/camptothecin viability -0.213; viability with camptothecin 144; inactive.
With knock-down of SI #4, the record shows log2 vehicle/camptothecin viability -0.239; viability with camptothecin 71.8; inactive.
After knock-down of TASL #1, the screen gave log2 vehicle/camptothecin viability -0.219; viability with camptothecin 97.6; inactive.
Knock-down of TASL #2 came out at: log2 vehicle/camptothecin viability 0.0776; viability with camptothecin 92.7; inactive.
Silencing of TASL #3 gave: log2 vehicle/camptothecin viability -0.367; viability with camptothecin 67.4; inactive.
Silencing of CCN6 #1 gave: log2 vehicle/camptothecin viability -0.265; viability with camptothecin 115; inactive.
For CCN6 #2, the values are log2 vehicle/camptothecin viability 0.0439; viability with camptothecin 77.3; inactive.
With knock-down of CCN6 #3 the results were log2 vehicle/camptothecin viability -0.271; viability with camptothecin 79.1; inactive.
For CSNK1G2 #1, the values are log2 vehicle/camptothecin viability -0.305; viability with camptothecin 112; inactive.
Against CSNK1G2 #2 the deposit lists log2 vehicle/camptothecin viability 0.218; viability with camptothecin 57.6; inactive.
Silencing of CSNK1G2 #3 came out at: log2 vehicle/camptothecin viability -0.407; viability with camptothecin 114; inactive.
With knock-down of CSNK1G2 #4 the results were log2 vehicle/camptothecin viability -0.0823; viability with camptothecin 83.1; inactive.
SRC #1 scored log2 vehicle/camptothecin viability -0.152; viability with camptothecin 73.2; inactive.
Against SRC #2, the entry reads log2 vehicle/camptothecin viability -0.0573; viability with camptothecin 106; inactive.
SRC #3 gave log2 vehicle/camptothecin viability 0.0508; viability with camptothecin 89.6; inactive.
Knock-down of SRC #4 gave: log2 vehicle/camptothecin viability 0.204; viability with camptothecin 69.1; inactive.
PTPN4 #1 gave log2 vehicle/camptothecin viability -0.288; viability with camptothecin 92.3; inactive.
For PTPN4 #2 the deposit lists log2 vehicle/camptothecin viability -0.122; viability with camptothecin 84.2; inactive.
Knock-down of PTPN4 #3 resulted in: log2 vehicle/camptothecin viability -0.111; viability with camptothecin 103; inactive.
For PTPN4 #4 the deposit lists log2 vehicle/camptothecin viability -0.162; viability with camptothecin 68.7; inactive.
Knock-down of MYLIP #1 gave: log2 vehicle/camptothecin viability -0.3; viability with camptothecin 67.5; inactive.
After knock-down of MYLIP #2, the screen gave log2 vehicle/camptothecin viability -0.554; viability with camptothecin 76.5; inactive.
For MYLIP #3 the deposit lists log2 vehicle/camptothecin viability -0.165; viability with camptothecin 104; inactive.
Knock-down of OR11H1 #1 resulted in: log2 vehicle/camptothecin viability 0.0483; viability with camptothecin 33.2; inactive.
Depletion of OR11H1 #2 gave: log2 vehicle/camptothecin viability -0.238; viability with camptothecin 45.2; inactive.
Against OR11H1 #3, the values are log2 vehicle/camptothecin viability 0.304; viability with camptothecin 87.8; inactive.
OR11H1 #4 showed log2 vehicle/camptothecin viability -0.0083; viability with camptothecin 93.2; inactive.
Against ZW10 #1, the entry reads log2 vehicle/camptothecin viability -0.633; viability with camptothecin 89.8; inactive.
ZW10 #2 scored log2 vehicle/camptothecin viability -0.0871; viability with camptothecin 111; inactive.
For ZW10 #3 the deposit lists log2 vehicle/camptothecin viability -0.236; viability with camptothecin 52.1; inactive.
For ZW10 #4, the values are log2 vehicle/camptothecin viability -0.366; viability with camptothecin 63.2; inactive.
RAB40A #1 scored log2 vehicle/camptothecin viability -0.434; viability with camptothecin 103; inactive.
With knock-down of RAB40A #2 the results were log2 vehicle/camptothecin viability -0.106; viability with camptothecin 104; inactive.
Knock-down of RAB40A #3 resulted in: log2 vehicle/camptothecin viability -0.11; viability with camptothecin 68.7; inactive.
With knock-down of RAB40A #4, the record shows log2 vehicle/camptothecin viability -0.102; viability with camptothecin 101; inactive.
TREM1 #1 gave log2 vehicle/camptothecin viability -0.0216; viability with camptothecin 80.4; inactive.
With knock-down of TREM1 #2, the record shows log2 vehicle/camptothecin viability -0.0984; viability with camptothecin 111; inactive.
For TREM1 #3 the deposit lists log2 vehicle/camptothecin viability -0.0395; viability with camptothecin 79.9; inactive.
TREM1 #4 showed log2 vehicle/camptothecin viability 0.111; viability with camptothecin 81.1; inactive.

7 entries from above, showing only “log2 vehicle/camptothecin viability”.
ZW10 #1: -0.633
ZW10 #2: -0.0871
ZW10 #3: -0.236
ZW10 #4: -0.366
RAB40A #1: -0.434
RAB40A #2: -0.106
RAB40A #3: -0.11
